This passage reports melting temperature shift results from the supplement of paper PMC10060354, “Discovery of a small molecule ligand of FRS2 that inhibits invasion and tumor growth” (Cellular Oncology, 2022).

Protein sequences, listed by entry. Tags and fused reporters are not part of them. Lines headed by an entry give the natural chain unless they say otherwise; changes in a name come on top.
UniProt P15822, whole entry, looked up: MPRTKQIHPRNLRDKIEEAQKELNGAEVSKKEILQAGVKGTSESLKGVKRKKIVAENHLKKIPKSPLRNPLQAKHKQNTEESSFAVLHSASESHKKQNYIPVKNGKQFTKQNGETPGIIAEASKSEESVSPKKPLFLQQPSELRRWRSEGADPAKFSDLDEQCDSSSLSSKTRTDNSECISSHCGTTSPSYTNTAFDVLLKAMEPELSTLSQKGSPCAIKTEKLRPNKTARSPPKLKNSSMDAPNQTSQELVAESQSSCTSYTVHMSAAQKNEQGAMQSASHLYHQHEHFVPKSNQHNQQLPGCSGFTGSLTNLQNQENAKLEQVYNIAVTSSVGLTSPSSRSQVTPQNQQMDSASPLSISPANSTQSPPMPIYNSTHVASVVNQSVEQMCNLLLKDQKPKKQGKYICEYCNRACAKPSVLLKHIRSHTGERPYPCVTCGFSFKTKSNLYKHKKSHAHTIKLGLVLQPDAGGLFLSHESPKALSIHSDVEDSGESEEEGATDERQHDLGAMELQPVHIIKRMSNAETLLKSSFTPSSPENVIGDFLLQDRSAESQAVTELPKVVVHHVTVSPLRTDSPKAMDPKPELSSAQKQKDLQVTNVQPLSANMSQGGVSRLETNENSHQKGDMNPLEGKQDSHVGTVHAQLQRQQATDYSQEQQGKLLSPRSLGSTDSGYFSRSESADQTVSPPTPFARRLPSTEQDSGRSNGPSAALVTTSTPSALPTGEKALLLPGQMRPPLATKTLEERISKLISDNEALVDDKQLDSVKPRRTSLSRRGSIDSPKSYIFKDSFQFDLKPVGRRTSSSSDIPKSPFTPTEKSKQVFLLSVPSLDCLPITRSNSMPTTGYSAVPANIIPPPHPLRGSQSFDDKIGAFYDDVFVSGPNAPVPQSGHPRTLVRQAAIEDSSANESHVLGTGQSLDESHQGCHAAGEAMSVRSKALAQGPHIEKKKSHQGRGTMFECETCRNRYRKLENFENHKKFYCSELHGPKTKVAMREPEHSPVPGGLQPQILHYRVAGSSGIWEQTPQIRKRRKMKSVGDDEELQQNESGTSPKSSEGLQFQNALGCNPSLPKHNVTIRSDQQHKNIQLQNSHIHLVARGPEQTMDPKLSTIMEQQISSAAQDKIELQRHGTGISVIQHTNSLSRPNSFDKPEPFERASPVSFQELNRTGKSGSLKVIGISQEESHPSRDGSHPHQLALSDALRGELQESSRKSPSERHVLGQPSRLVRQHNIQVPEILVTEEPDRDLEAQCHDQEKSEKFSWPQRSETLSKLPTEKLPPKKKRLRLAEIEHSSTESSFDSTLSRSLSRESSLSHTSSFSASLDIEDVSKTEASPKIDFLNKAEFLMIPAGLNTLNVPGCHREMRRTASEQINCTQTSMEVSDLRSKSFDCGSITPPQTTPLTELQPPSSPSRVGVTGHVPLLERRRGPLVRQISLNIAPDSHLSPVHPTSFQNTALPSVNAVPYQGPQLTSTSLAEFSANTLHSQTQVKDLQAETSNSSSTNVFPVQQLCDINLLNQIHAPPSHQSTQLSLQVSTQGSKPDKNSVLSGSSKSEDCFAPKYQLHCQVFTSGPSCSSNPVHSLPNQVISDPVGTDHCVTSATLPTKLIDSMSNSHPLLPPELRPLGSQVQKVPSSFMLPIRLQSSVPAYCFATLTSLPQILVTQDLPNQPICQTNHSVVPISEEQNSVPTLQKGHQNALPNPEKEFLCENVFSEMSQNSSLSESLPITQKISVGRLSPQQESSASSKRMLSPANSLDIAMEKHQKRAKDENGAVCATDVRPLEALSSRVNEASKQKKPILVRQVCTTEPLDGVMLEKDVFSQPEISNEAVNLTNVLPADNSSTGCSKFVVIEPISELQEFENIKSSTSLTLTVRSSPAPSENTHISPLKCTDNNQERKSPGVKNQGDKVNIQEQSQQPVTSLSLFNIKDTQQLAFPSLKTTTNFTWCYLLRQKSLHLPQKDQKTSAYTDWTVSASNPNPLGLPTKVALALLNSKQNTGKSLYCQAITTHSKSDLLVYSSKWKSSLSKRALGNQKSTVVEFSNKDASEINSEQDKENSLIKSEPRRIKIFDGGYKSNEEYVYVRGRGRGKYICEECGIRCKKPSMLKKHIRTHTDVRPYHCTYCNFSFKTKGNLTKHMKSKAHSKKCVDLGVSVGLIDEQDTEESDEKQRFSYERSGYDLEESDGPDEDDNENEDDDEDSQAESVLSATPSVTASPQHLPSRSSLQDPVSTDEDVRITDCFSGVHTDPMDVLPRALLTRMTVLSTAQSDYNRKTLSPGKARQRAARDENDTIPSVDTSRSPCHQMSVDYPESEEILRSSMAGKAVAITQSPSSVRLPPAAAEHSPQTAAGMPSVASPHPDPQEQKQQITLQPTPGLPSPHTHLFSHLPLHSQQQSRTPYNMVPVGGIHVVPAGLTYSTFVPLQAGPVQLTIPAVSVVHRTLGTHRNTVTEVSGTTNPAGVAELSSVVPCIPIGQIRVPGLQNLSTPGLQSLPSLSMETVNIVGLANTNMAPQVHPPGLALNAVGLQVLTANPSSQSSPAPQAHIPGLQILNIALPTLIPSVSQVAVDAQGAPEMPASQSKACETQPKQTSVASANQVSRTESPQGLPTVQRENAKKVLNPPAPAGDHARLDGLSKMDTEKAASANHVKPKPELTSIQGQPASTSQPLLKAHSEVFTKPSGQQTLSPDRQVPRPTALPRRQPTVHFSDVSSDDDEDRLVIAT
UniProt P15259: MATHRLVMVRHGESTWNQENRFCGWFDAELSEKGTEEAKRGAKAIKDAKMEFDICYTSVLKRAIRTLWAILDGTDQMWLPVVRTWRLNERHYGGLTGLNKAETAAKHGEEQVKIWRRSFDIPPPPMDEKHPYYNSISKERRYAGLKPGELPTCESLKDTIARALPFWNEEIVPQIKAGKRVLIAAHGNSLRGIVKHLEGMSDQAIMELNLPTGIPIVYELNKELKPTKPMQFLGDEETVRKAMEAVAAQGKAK
UniProt P50225: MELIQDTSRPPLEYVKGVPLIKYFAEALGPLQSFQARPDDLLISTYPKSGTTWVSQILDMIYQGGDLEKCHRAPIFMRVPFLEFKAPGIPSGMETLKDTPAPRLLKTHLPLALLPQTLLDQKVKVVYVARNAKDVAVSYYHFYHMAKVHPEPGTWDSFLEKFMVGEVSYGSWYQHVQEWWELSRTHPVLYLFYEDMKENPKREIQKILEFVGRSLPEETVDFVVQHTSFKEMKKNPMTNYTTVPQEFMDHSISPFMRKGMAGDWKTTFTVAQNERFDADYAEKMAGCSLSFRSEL
UniProt Q6PJT7: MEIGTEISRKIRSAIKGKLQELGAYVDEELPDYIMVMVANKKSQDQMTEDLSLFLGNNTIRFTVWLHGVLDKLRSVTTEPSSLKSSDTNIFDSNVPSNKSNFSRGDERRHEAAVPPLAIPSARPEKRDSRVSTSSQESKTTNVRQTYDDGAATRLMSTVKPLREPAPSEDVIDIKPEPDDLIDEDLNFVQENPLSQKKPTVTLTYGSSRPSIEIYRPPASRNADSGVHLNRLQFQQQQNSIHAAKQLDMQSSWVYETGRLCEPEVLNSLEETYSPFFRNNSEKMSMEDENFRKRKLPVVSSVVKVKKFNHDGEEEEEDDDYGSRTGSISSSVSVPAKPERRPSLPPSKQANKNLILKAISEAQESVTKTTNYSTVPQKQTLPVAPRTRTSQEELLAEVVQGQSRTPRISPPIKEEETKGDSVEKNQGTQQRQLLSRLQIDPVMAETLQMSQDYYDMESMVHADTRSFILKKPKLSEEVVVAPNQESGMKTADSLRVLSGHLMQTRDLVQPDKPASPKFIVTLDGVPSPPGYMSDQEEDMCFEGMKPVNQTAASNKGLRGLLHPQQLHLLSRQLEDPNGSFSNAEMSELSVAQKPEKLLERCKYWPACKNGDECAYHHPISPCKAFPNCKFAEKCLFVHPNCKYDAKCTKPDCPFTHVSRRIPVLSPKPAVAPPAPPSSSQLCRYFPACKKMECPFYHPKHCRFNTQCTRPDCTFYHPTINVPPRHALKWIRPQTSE
UniProt Q8NB16: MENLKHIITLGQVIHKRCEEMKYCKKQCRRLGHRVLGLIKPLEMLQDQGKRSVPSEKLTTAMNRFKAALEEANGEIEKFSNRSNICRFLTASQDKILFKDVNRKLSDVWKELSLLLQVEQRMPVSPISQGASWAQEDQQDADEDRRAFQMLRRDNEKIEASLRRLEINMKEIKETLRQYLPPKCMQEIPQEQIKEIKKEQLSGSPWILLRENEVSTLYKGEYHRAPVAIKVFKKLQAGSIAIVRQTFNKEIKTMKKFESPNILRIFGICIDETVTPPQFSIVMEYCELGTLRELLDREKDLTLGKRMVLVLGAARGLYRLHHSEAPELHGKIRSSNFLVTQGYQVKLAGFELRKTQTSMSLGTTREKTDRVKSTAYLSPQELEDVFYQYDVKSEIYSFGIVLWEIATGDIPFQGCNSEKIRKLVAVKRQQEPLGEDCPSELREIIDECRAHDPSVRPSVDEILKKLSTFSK
UniProt Q7Z406, whole entry: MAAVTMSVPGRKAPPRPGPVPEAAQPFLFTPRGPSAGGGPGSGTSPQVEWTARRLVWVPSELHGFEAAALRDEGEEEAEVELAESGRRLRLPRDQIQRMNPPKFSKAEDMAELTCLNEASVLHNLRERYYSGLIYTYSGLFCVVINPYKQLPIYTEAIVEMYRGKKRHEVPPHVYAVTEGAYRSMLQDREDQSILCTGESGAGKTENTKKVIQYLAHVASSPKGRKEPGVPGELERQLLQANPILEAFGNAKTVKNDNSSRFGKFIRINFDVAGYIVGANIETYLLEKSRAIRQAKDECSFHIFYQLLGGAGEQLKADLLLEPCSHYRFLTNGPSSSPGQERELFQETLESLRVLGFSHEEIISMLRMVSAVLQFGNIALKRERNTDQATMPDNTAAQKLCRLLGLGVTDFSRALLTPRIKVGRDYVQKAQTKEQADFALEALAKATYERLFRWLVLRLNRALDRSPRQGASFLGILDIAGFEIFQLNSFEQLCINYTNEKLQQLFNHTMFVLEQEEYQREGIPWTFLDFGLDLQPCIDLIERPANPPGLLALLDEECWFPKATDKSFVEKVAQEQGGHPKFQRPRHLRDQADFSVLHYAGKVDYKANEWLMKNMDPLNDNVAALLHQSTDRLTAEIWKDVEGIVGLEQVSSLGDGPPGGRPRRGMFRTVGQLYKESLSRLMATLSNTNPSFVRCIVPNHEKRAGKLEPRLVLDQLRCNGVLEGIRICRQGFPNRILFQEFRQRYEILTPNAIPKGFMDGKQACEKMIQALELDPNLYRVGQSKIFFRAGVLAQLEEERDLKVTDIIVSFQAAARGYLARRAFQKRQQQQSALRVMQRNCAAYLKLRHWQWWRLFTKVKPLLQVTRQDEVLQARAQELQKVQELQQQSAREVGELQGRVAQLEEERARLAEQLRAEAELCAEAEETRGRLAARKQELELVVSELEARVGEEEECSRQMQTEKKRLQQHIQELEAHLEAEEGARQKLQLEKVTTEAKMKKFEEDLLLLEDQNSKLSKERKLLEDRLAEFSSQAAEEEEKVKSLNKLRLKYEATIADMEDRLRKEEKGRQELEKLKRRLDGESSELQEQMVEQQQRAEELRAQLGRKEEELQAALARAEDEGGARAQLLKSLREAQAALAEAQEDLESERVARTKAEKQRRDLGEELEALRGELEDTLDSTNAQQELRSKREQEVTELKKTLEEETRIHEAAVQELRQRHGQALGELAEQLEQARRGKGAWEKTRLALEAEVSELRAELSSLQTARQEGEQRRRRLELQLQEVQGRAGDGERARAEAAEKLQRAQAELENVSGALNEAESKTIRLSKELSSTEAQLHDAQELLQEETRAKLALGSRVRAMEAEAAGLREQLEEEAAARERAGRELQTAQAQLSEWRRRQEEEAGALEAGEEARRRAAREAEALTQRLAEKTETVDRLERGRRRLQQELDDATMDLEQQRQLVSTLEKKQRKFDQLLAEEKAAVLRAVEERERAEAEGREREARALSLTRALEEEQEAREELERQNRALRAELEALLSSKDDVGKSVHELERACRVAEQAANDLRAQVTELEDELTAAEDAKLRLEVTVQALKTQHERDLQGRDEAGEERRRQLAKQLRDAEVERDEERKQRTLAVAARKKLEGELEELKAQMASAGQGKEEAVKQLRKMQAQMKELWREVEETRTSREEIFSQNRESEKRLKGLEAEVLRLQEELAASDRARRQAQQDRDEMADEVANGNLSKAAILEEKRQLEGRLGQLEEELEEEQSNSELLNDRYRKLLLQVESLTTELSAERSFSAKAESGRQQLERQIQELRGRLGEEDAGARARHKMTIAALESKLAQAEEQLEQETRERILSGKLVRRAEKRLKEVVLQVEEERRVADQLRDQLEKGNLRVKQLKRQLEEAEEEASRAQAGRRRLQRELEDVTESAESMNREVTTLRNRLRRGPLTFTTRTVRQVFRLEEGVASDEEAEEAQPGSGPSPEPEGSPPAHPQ
UniProt P49773: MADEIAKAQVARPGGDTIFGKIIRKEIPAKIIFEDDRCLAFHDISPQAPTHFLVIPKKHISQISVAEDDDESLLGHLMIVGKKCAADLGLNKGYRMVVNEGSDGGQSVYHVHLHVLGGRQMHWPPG

Repeats are few or missing, and single values can be far off.

Compound in the assay: [O-][N+](C(C1=C(C(O)=C2)NC(C(C=C3)=CC=C3Cl)C4C1C=CC4)=C2Cl)=O
Briefly: melting temperature shift (compound 7 minus DMSO); higher = compound stabilises the protein. The following applies: 10 µM. The method, then: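 Thermal proteome profiling (TMT mass spectrometry) in intact DAOY medulloblastoma cells or DAOY lysates treated with 10 µM compound 7 or DMSO, heated at 10 temperatures from 40.5 to 73.8 °C for 3 min. Melting curves were fitted with the Bioconductor TPP package, and the melting point difference between compound and vehicle is reported per protein (single curve per condition).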

Where [1] appears, read: system: DAOY cell lysate, treatment time: 20 min, 4 °C.
[2] abbreviates: system: intact DAOY cells, treatment time: 90 min, 37 °C.

For the target ACO1 (UniProt P21399), the melting temperature shift under setting [1] is -0.309 °C and the melting temperature shift under setting [2] was -0.317 °C.
On to NCK1 (UniProt P16333), for which the melting temperature shift under setting [1] was -0.353 °C and the melting temperature shift under setting [2] was determined as 0.968 °C.
Regarding GTPBP4 (UniProt Q9BZE4), the melting temperature shift worked out at 0.438 °C under setting [1] and 2.07 °C under setting [2].
Regarding UniProt A6NIZ1, the melting temperature shift under setting [2] is -1.29 °C.
On to UniProt P15822, for which the melting temperature shift under setting [1] was -1.9 °C.
As for UniProt Q8IZQ5, under setting [2], the melting temperature shift amounted to 3.81 °C.
On to UniProt P15259, for which, under setting [2], the melting temperature shift is -1.18 °C.
With NOL11 (UniProt Q9H8H0), the melting temperature shift under setting [1] was 0.372 °C and the melting temperature shift under setting [2] was 0.0968 °C.
Turning to AP4M1 (UniProt O00189), the melting temperature shift under setting [1] is -0.46 °C.
NECAP2 (UniProt Q9NVZ3): the melting temperature shift reads like this: under setting [1], -2.6 °C; under setting [2], -0.833 °C.
Consider UniProt P50225, for which the melting temperature shift reads like this: under setting [1], -1.02 °C; under setting [2], 1.34 °C.
On the same counts, the results for RPP38 (UniProt P78345) are -1.45 °C and -0.426 °C.
On to UniProt Q6BAA4, for which the melting temperature shift under setting [2] is -1.71 °C.
On to DPAGT1 (UniProt Q9H3H5), for which, under setting [2], the melting temperature shift was found to be 0.00624 °C.
In the case of ZC3H14 (UniProt Q6PJT7), the melting temperature shift is 1.08 °C under setting [1] and -1.09 °C under setting [2].
With UniProt Q9BQ87, the melting temperature shift under setting [2] was determined as 1.16 °C.
As to UniProt Q16667, under setting [1], the melting temperature shift is -0.893 °C.
Consider TFAP4 (UniProt Q01664), for which the melting temperature shift by setting is: under setting [1], 0.114 °C; under setting [2], 0.0708 °C.
As to KIAA0391 (UniProt O15091), the melting temperature shift under setting [1] is -1.38 °C.
MRE11A (UniProt P49959): the melting temperature shift by setting is: under setting [1], -0.838 °C; under setting [2], 1.82 °C.
As to UniProt Q8WUN7, the melting temperature shift under setting [1] is -3.31 °C.
For HSPA8 (UniProt P11142), the melting temperature shift is -0.172 °C under setting [1] and -0.0517 °C under setting [2].
For the target A0A0J9YXQ4, A0A0J9YXQ4, the melting temperature shift is 0.125 °C under setting [1] and 0.103 °C under setting [2].
Regarding RHOG (UniProt P84095), the melting temperature shift was 1.11 °C under setting [1] and -0.814 °C under setting [2].
As to SF3A3 (UniProt Q12874), the melting temperature shift is 0.273 °C under setting [1] and 0.458 °C under setting [2].
Regarding UniProt Q5C9Z4, the melting temperature shift under setting [1] is -0.0319 °C.
Take UniProt Q8IUF1: the melting temperature shift under setting [1] is -0.72 °C.
Take STOML2 (UniProt Q9UJZ1): the melting temperature shift is 3.28 °C under setting [1] and -0.597 °C under setting [2].
As for EEF1D (UniProt P29692), the melting temperature shift is, setting by setting: under setting [1], -0.393 °C; under setting [2], 0.0554 °C.
With MLKL (UniProt Q8NB16), the melting temperature shift is -1.22 °C under setting [1] and -0.998 °C under setting [2].
Turning to TBC1D9B (UniProt Q66K14), the melting temperature shift under setting [1] was -0.0105 °C.
Consider MYH14 (UniProt Q7Z406), for which the melting temperature shift is -0.638 °C under setting [1] and 0.803 °C under setting [2].
On the same counts, the results for NCAPH (UniProt Q15003) are -0.519 °C and -0.803 °C.
In the case of UniProt Q9UJ68, the melting temperature shift runs as follows: under setting [1], -0.26 °C; under setting [2], -1.95 °C.
On to ATP6V1E1 (UniProt P36543), for which the melting temperature shift was -0.411 °C under setting [1] and 0.587 °C under setting [2].
Consider HINT1 (UniProt P49773), for which the melting temperature shift by setting is: under setting [1], -0.353 °C; under setting [2], -0.398 °C.
With UniProt Q15125, under setting [1], the melting temperature shift is 3.29 °C.
As to ALDOA (UniProt P04075), the melting temperature shift under setting [1] stood at 0.325 °C and the melting temperature shift under setting [2] was 0.573 °C.
Regarding SSSCA1 (UniProt O60232), the melting temperature shift under setting [1] is -0.217 °C and the melting temperature shift under setting [2] turned out to be 2.02 °C.
